{"source": "PubChem BioAssay AID1259260 (Sanger Institute, 2017)", "aim": "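Essential and drug-synergistic kinases in a colorectal cancer cell line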 (primary screen)", "system": "human NCI-H716 colorectal cancer cells", "knock-down reagent": "siRNA pool against human genes", "treatment": "anchor drugs BYL719 (alpelisib) 1 µM, cetuximab 5 µg/ml or trametinib 10 nM, each at a dose chosen to harm viability only mildly; DMSO vehicle for the knock-down-alone arm", "measurement": "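Mean viability over replicates against non-targeting siRNA, robust z-score without drug, and per-drug synergy comparing combined with single treatments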", "reading the numbers": "viability robust z-score, siRNA alone: higher = more surviving cells; below -3 called essential; viability vs control, no drug: higher = more surviving cells", "hit rule": "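a knock-down counts as essential if its no-drug robust z-score is lower than -3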", "meaning of the calls": "active = essential (knock-down alone lowers viability); inactive = no essential effect", "note": "In all, the deposit lists 794 reagents; below is an unselected part. 13 of them (1.6%) were called active. 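Calls reflect only knock-down without drug; synergy above 0.15 was grouped apart and does not change the call.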 Viability is capped at 1. Not all columns of the deposit are shown. Not stated in the record: the amount of reagent, the time to read-out."}
The opening 2 records, ahead of the listing:
{"gene symbol":"TESK1 (GeneID 7016)","viability robust z-score, siRNA alone":0.602,"viability vs control, no drug (fraction of control)":1,"call":"inactive"}
{"gene symbol":"TCF7L2 (GeneID 6934)","viability robust z-score, siRNA alone":0.602,"viability vs control, no drug (fraction of control)":1,"call":"inactive"}

The list itself, from the first entry:
{"gene symbol":"TESK1 (GeneID 7016)","viability robust z-score, siRNA alone":0.602,"viability vs control, no drug (fraction of control)":1,"call":"inactive"}
{"gene symbol":"TCF7L2 (GeneID 6934)","viability robust z-score, siRNA alone":0.602,"viability vs control, no drug (fraction of control)":1,"call":"inactive"}
{"gene symbol":"PIKFYVE (GeneID 200576)","viability robust z-score, siRNA alone":0.602,"viability vs control, no drug (fraction of control)":1,"call":"inactive"}
{"gene symbol":"CHD9 (GeneID 80205)","viability robust z-score, siRNA alone":0.602,"viability vs control, no drug (fraction of control)":1,"call":"inactive"}
{"gene symbol":"CAMK1G (GeneID 57172)","viability robust z-score, siRNA alone":0.602,"viability vs control, no drug (fraction of control)":1,"call":"inactive"}
{"gene symbol":"ACVR1B (GeneID 91)","viability robust z-score, siRNA alone":0.124,"viability vs control, no drug (fraction of control)":0.95,"call":"inactive"}
{"gene symbol":"DYRK3 (GeneID 8444)","viability robust z-score, siRNA alone":0.602,"viability vs control, no drug (fraction of control)":1,"call":"inactive"}
{"gene symbol":"CERK (GeneID 64781)","viability robust z-score, siRNA alone":0.602,"viability vs control, no drug (fraction of control)":1,"call":"inactive"}
{"gene symbol":"ITPKC (GeneID 80271)","viability robust z-score, siRNA alone":-1.27,"viability vs control, no drug (fraction of control)":0.805,"call":"inactive"}
{"gene symbol":"PRKCZ (GeneID 5590)","viability robust z-score, siRNA alone":-1.41,"viability vs control, no drug (fraction of control)":0.791,"call":"inactive"}
{"gene symbol":"ADCK1 (GeneID 57143)","viability robust z-score, siRNA alone":0.602,"viability vs control, no drug (fraction of control)":1,"call":"inactive"}
{"gene symbol":"SPHK2 (GeneID 56848)","viability robust z-score, siRNA alone":0.602,"viability vs control, no drug (fraction of control)":1,"call":"inactive"}
